The test deals with T1, C-His6-VanS^127-384 (UniProt Q06240).
T1 sequence: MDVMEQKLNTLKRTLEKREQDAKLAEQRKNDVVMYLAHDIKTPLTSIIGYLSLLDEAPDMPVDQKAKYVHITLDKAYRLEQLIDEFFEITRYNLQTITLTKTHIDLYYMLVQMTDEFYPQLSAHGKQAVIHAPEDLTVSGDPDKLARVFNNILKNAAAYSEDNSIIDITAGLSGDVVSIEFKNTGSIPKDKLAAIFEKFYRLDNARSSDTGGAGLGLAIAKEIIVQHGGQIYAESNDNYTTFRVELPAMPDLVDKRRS
As to the kind of experiment: differential scanning fluorimetry; 10 μM VanS, SYPRO Orange, 20 mM potassium phosphate buffer pH 7.5; lasso peptides at siamycin I 6 to 90 μM, sviceucin 12 to 180 μM, microcin J25 25 to 200 μM; Kd from the change of the melting temperature, simple cooperative model; both purified.

These are yes or no findings as the source states them, for the method shown. Sequences can lack the tags named with a protein.

For GGAGHVPEYFVGIGTPISFYG (peptide, UniProt Q9X2V7 38-58, lasso peptide (N-terminal macrolactam ring)) [microcin J25], the binding result was “no binding (tested: 25 to 200 μM)”.

For the origin of these results see paper PMC11872507, “Lasso peptides sviceucin and siamycin I exhibit anti-virulence activity and restore vancomycin effectiveness in vancomycin-resistant pathogens” (iScience, 2025).
